Test results reported in patent US20210401926A1, “PHARMACEUTICAL FORMULATIONS OF PEPTIDE INHIBITORS” (CANIMGUIDE THERAPEUTICS AB, priority 2018, published 2021).
These are yes or no findings as the source states them, for the method shown. Some results given as binding are weak or reduced against the parent protein; the word gives no strength.

T1: P3028 (…)
T1 sequence (peptide): VFDEFKPLVEEPQNLIK


Biological target: T1, P3028 (…)
Test: conclusion drawn from the PBMC activation experiments of Example 2 (cancer sera); no direct binding assay in this filing

binding	Binder
binds	FFVKLS [P28 core (peptide 32230, FFVKLS)]
binds	KKLDTFFVKLSLFTER [P28R (…)]
